In article PMC7942993:
These are yes or no findings as the source states them, for the method shown. In cells and extracts the contact can be indirect. Some results given as binding are weak or reduced against the parent protein; the word gives no strength.

Protein sequences, listed by entry. Tags and fused reporters are not part of them. Lines headed by an entry give the natural chain unless they say otherwise; changes in a name come on top.
UniProt P54274: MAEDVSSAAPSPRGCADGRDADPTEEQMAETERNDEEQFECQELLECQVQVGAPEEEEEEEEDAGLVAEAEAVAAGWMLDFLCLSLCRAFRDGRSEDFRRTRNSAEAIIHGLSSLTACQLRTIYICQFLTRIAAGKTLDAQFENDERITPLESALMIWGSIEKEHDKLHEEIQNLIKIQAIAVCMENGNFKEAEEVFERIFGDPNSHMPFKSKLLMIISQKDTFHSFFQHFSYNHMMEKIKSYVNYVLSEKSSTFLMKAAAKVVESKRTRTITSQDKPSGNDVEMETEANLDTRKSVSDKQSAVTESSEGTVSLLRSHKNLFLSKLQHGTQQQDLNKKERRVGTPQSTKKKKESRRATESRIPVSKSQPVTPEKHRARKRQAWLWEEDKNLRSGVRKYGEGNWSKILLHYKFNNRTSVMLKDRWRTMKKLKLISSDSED

Tests used:
Experiment in all cases: co-IP; lysates of HEK293T cells expressing the Flag-TRF1 alleles (1X cell lysis buffer with protease inhibitors) mixed overnight with Flag M2 agarose beads; washed four times with lysis buffer; eluted with Laemmli buffer; endogenous TIN2 and POT1 detected by blot
[1] = biological target: Flag-TRF1 (wild-type human TRF1, FLAG-tagged) (human) (UniProt P54274)
Flag-TRF1-T358A (human) = Flag-TRF1-T358A (human) (UniProt P54274)
Flag-TRF1-T273A (human) = Flag-TRF1-T273A (human) (UniProt P54274)

Measured: binding

B1: POT1 (endogenous) (protein, UniProt Q9NUX5 1-634)
chain: MSLVPATNYIYTPLNQLKGGTIVNVYGVVKFFKPPYLSKGTDYCSVVTIVDQTNVKLTCLLFSGNYEALPIIYKNGDIVRFHRLKIQVYKKETQGITSSGFASLTFEGTLGAPIIPRTSSKYFNFTTEDHKMVEALRVWASTHMSPSWTLLKLCDVQPMQYFDLTCQLLGKAEVDGASFLLKVWDGTRTPFPSWRVLIQDLVLEGDLSHIHRLQNLTIDILVYDNHVHVARSLKVGSFLRIYSLHTKLQSMNSENQTMLSLEFHLHGGTSYGRGIRVLPESNSDVDQLKKDLESANLTANQHSDVICQSEPDDSFPSSGSVSLYEVERCQQLSATILTDHQYLERTPLCAILKQKAPQQYRIRAKLRSYKPRRLFQSVKLHCPKCHLLQEVPHEGDLDIIFQDGATKTPDVKLQNTSLYDSKIWTTKNQKGRKVAVHFVKNNGILPLSNECLLLIEGGTLSEICKLSNKFNSVIPVRSGHEDLELLDLSAPFLIQGTIHHYGCKQCSSLRSIQNLNSLVDKTSWIPSSVAEALGIVPLQYVFVMTFTLDDGTGVLEAYLMDSDKFFQIPASEVLMDDDLQKSVDMIMDMFCPPGIKIDAYPWLECFIKSYNVTNGTDNQICYQIFDTTVAEDVI
binds: [1] | Flag-TRF1-T358A (human) | Flag-TRF1-T273A (human)

B2: TIN2 (endogenous) (protein, UniProt Q9BSI4 1-451)
chain: MATPLVAGPAALRFAAAASWQVVRGRCVEHFPRVLEFLRSLRAVAPGLVRYRHHERLCMGLKAKVVVELILQGRPWAQVLKALNHHFPESGPIVRDPKATKQDLRKILEAQETFYQQVKQLSEAPVDLASKLQELEQEYGEPFLAAMEKLLFEYLCQLEKALPTPQAQQLQDVLSWMQPGVSITSSLAWRQYGVDMGWLLPECSVTDSVNLAEPMEQNPPQQQRLALHNPLPKAKPGTHLPQGPSSRTHPEPLAGRHFNLAPLGRRRVQSQWASTRGGHKERPTVMLFPFRNLGSPTQVISKPESKEEHAIYTADLAMGTRAASTGKSKSPCQTLGGRALKENPVDLPATEQKENCLDCYMDPLRLSLLPPRARKPVCPPSLCSSVITIGDLVLDSDEEENGQGEGKESLENYQKTKFDTLIPTLCEYLPPSGHGAIPVSSCDCRDSSRPL
binds: [1] | Flag-TRF1-T358A (human) | Flag-TRF1-T273A (human)
